Experimental data from PubChem BioAssay AID1671190 (National Center for Advancing Translational Sciences (NCATS), 2021).
In all, about 580,000 compounds went through this assay and about 6,100 (1.1%) were called active. Inconclusive means that the source gave no clear call. Such entries were picked first, then a sample of the others. The call rests on the fitted dose curve; in most records, active means well fitted inhibition curve with a large enough effect; inconclusive means small, poorly fitted or top-dose-only effect, or another doubt; inactive means no such curve, though single readings can be large or run the other way. Potencies beside an inconclusive call are fits to weak or partial responses and may not hold up.

Chains of the proteins cited; added tags and fusions are not shown. Lines headed by an entry give the natural chain unless they say otherwise; changes in a name come on top.
UniProt P18054: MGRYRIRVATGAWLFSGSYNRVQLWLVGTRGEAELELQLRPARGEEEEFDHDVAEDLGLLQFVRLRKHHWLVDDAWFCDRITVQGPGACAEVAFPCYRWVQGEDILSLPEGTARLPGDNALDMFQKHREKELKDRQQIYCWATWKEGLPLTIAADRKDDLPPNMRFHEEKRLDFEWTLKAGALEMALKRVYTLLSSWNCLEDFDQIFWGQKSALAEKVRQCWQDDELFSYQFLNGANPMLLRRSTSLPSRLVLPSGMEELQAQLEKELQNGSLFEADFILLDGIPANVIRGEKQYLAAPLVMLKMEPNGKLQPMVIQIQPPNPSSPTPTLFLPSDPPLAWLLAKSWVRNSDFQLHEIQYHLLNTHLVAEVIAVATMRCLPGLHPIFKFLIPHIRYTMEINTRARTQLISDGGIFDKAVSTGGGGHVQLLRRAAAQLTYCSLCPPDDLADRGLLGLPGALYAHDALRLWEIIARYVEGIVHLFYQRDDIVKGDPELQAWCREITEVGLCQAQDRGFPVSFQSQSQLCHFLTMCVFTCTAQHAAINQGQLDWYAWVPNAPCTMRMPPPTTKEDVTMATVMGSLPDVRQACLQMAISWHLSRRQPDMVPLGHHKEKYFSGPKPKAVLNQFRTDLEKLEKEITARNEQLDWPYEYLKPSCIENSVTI

Biological target: Polyunsaturated fatty acid lipoxygenase ALOX12 (Homo sapiens) (UniProt P18054)
Experiment: Primary qHTS assay for inhibitors of human arachidonate 12S-lipoxygenase (ALOX12): Round 2
Conditions: purified 12hLO, xylenol orange hydroperoxide absorbance; activity change, negative = inhibition: at 108 µM (top of the series) unless noted
Method in brief: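 Purified human 12hLO at 150 nM in 25 mM Hepes, 0.01% Triton X-100, pH 7.0, preincubated 15 min at room temperature with compound. Reaction started with 40 uM arachidonic acid, 30 min at room temperature. Hydroperoxide measured by Fe-xylenol orange, 573/405 nm absorbance ratio.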
On the % scale 0 is the no-effect control and ±100 the full control effect; potency means the concentration at half of the fitted maximal effect.

Structure (SMILES) | Potency | activity change, negative = inhibition
O=C(CCc1ccccc1)NNC(=O)c1cc(Cl)ccc1O | inconclusive: 28.2 µM [inhibitor, single point] | –
CCN(C)C(=O)CCc1c(C)nn(-c2ccccc2)c1Oc1ccccc1F | inconclusive: 56.2 µM [inhibitor, partial curve, poor fit] | –
Cc1ccccc1NC(=O)CSc1ccsc1[N+](=O)[O-] | inconclusive: 44.7 µM [inhibitor, partial curve, poor fit] | –
FC(F)(F)c1cc(-c2ccco2)nc(N2CCN(Cc3ccccc3)CC2)n1 | inconclusive: 44.7 µM [inhibitor, partial curve] | –
Cc1ccc2c(c1)-c1c(cnn1CC(=O)N(C)c1ccccc1Cl)CO2 | inconclusive: 25.1 µM [inhibitor, partial curve, poor fit] | –
COc1ccc(NC(=O)C2CCN(C(=O)c3ccc(OC)cc3)CC2)cc1 | inactive | –
CCC1NC(C(=O)O)Cc2c1[nH]c1ccccc21 (configuration not stated) | inconclusive: 5.62 µM [inhibitor, partial curve, poor fit] | –
O=C1c2ccccc2NC(c2cnc3ccccc3n2)N1c1ccc(Cl)cc1 (configuration not stated) | inconclusive: 11.2 µM [inhibitor, full curve, poor fit] | –
NS(=O)(=O)c1ccc(CCNC(=O)Cc2cccs2)cc1 | inconclusive: 79.4 µM [inhibitor, single point] | –
CC(=O)c1ccc(S(=O)(=O)NCCC(=O)NC2CCN(Cc3ccccc3)CC2)cc1 | inconclusive: 0.891 µM [inhibitor, full curve, poor fit] | –
CCCCSc1oc(-c2ccco2)nc1S(=O)(=O)c1ccc(F)cc1 | active: 7.94 µM | –
CCc1cccc(C)c1NC(=O)CCCN1C(=O)C(c2ccccc2)Oc2cccnc21 (configuration not stated) | inactive | –
Cn1c(=O)c2c([nH]c(=S)n2Cc2ccc(Cl)cc2)n(C)c1=O | inconclusive: 1.58 µM [inhibitor, full curve, poor fit] | –
CN(C)c1ccc(NC(=S)Nc2ccc3c(c2)c(=O)n(C)n3-c2ccc(C(C)(C)C)cc2)cc1 | inconclusive: 50.1 µM [inhibitor, partial curve, poor fit] | –
COC(=O)N1C(=O)[C@](c2ccc(Cl)cc2)(C(C)C)N1C(=O)OC | inconclusive: 44.7 µM [inhibitor, partial curve, poor fit] | –
Cc1ccc(-c2csc(NC(=O)c3cnc4c(cnn4C(C)C)c3)n2)cc1C | inconclusive: 79.4 µM [inhibitor, partial curve, poor fit] | –
COc1cccc(-c2nc3n(n2)CCc2ccccc2-3)c1 | inconclusive: 50.1 µM [inhibitor, single point] | –
Cc1ccccc1Cn1cnc2nc3c(cc2c1=O)CC(C)CC3 (configuration not stated) | inconclusive: 5.62 µM [inhibitor, full curve, poor fit] | –
Cc1noc(C)c1S(=O)(=O)Nc1ccccc1SCc1cc(=O)n2cc(Cl)ccc2n1 | inconclusive: 31.6 µM [inhibitor, single point] | –
COCCn1cc(C(=O)NCCc2ccccc2OC)ccc1=O | inactive | –
O=Cc1ccccc1-c1ccccc1C(=O)O | inconclusive: 6.31 µM [inhibitor, full curve, poor fit] | –
COc1cc(CN2CCC(C(=O)NC(c3ccc(-c4ccccc4)cc3)c3cnccn3)CC2)cc(OC)c1 (configuration not stated) | inconclusive: 39.8 µM [inhibitor, partial curve, poor fit] | –
O=C1OCC2=C1C(c1ccc3c(c1)OCO3)Sc1ccccc1N2 (configuration not stated) | inconclusive: 50.1 µM [inhibitor, partial curve, poor fit] | –

Structure (SMILES) | Potency | activity change, negative = inhibition
O=C1C(N2CCN(S(=O)(=O)c3cccc(F)c3)CC2)CCN1Cc1cccnc1 (configuration not stated) | inconclusive: 20 µM [inhibitor, full curve, poor fit] | –
COc1cc(CC(=O)Nc2cc(S(=O)(=O)N3CCCCC3)ccc2C)cc(OC)c1OC | active: 22.4 µM | –
FC(F)(F)c1cccc(Cn2ccc3ccccc32)c1 | inactive | –
Nc1nc(Nc2ccc(Cl)c(Cl)c2)nc(-c2cc3ccccc3o2)n1 | inconclusive: 15.8 µM [inhibitor, partial curve, poor fit] | –
CCN1CCN(c2cc(C)c3cc(NC(=O)c4cnccn4)ccc3n2)CC1 | inconclusive: 79.4 µM [inhibitor, single point] | –
COc1ccc(NS(=O)(=O)c2ccc(NC(=O)C3CCCO3)cc2)cc1 (configuration not stated) | inconclusive: 100 µM [inhibitor, partial curve, poor fit] | –
CC(C)N(Cc1ccccc1)C(=S)NC1CCCCC1 | inactive | –
Cc1cc(C)cc(NS(=O)(=O)c2ccc3oc(=O)ccc3c2)c1 | inconclusive: 89.1 µM [inhibitor, single point] | –
COc1ccc(C(C)=O)cc1COC(=O)C1CC2CCCC(C1)C2=O (configuration not stated) | – | inconclusive: -43.4% [inhibitor]
CCn1nc(C(=O)Nc2ccc3c(c2)CCC3)c2ccccc2c1=O | inconclusive: 39.8 µM [inhibitor, partial curve, poor fit] | –
CCCCc1c(C)nc2ccccc2c1SCCC(=O)O | inconclusive: 31.6 µM [inhibitor, partial curve, poor fit] | –
CCOC(=O)C(=O)N1CCC(C(=O)OCC)CC1 | inconclusive: 35.5 µM [inhibitor, partial curve, poor fit] | –
N#CC1=C(N)Oc2n[nH]c(-c3ccccc3)c2C12C(=O)N(Cc1ccc(F)cc1)c1ccccc12 (configuration not stated) | inconclusive: 70.8 µM [inhibitor, partial curve, poor fit] | –
CC(/C=C/c1ccccc1)=N/Nc1ccc([N+](=O)[O-])cc1 | inconclusive: 50.1 µM [inhibitor, partial curve, poor fit] | –
CN(Cc1c(F)cccc1Cl)C(=O)c1ccc(NC(=O)CC2SC(N3CCCCC3)=NC2=O)cc1 (configuration not stated) | inconclusive: 100 µM [inhibitor, single point] | –
CCCCOc1ccccc1C1CC(=O)NC2=C1C(=O)CCC2 (configuration not stated) | inactive | –
COc1ccccc1/C=C(/C#N)C(=O)O | inconclusive: 39.8 µM [inhibitor, full curve, poor fit] | –
S=C1NNC2(NN1)C1CC3CC(C1)CC2C3 | inconclusive: 79.4 µM [inhibitor, partial curve, poor fit] | –
Cc1noc2c(-c3cccc(CO)c3)cc(-c3ccc(F)cc3)nc12 | inconclusive: 25.1 µM [inhibitor, full curve, poor fit] | –
O=C(Nc1ccc2c(c1)OCO2)c1ccc(NC2CC2)c([N+](=O)[O-])c1 | inactive | –
Cc1ccccc1OCC(=O)NCCC1=CCCCC1 | inactive | –
CCS(=O)(=O)C1=NSC2=NC(=O)/C(=C\c3ccc(OC(=O)c4ccco4)cc3)C(=N)N21 | inconclusive: 39.8 µM [inhibitor, partial curve, poor fit] | –
CC(c1cccs1)N(C)Cc1ccc(OC(F)(F)F)cc1 (configuration not stated) | inactive | –

Structure (SMILES) | Potency | activity change, negative = inhibition
COc1cccc(C(=O)Nc2c(C)nn(-c3ccccc3)c2C)c1 | inactive | –
CCOC(=O)[C@]12CCCC=C1N(Cc1ccc3c(c1)OCO3)C(=O)[C@H](CC(=O)N1CCN(C(=O)c3ccco3)CC1)C2 | inconclusive: 141 µM [inhibitor, partial curve, poor fit] | –
Cc1cc(NC(=O)CN2C(=O)/C(=C/c3ccccc3F)SC2=S)no1 | inactive | –
CN1CCN(C(=O)c2ccc3c(c2)N(Cc2ccc(Cl)cc2)C(=O)c2ccccc2S3=O)CC1 (configuration not stated) | inactive | –
O=C(NCC1CCCO1)c1ccc2c(c1)C(=O)N(C1CCCCC1)C2=O (configuration not stated) | inactive | –
COc1ccc(CN2Cc3cc(NC(=O)c4ccc(F)cc4F)ccc3OC(C)C2=O)c(OC)c1 (configuration not stated) | inactive | –
COc1cccc(NC(=O)Nc2ccc3nc(N4CCN(C)CC4)cc(C)c3c2)c1 | inconclusive: 112 µM [inhibitor, single point] | –
CN(C)c1ccc(-c2nccc(NCCN3CCOCC3)n2)cc1 | inconclusive: 22.4 µM [inhibitor, partial curve, poor fit] | –
C[C@H](CO)N1C[C@H](C)[C@@H](CN(C)S(=O)(=O)c2ccc(F)cc2)Oc2ccc(NC(=O)NC3CCCCC3)cc2C1=O | inactive | –
Cc1ccc(S(=O)(=O)CCC(=O)Nc2cccc(C)c2)cc1 | inactive | –
CCC(C)NCCOCCOc1cc(C)c(Cl)c(C)c1 (configuration not stated) | inconclusive: 1.12 µM [inhibitor, full curve] | –
CCN(CC)C(=O)C1=C(C)N(CCCOC)C(=O)C(CC(=O)NCCN2CCOCC2)C1 (configuration not stated) | inactive | –
Cc1cnc2c(S(=O)(=O)N(CC(N)=O)C3CCCC3)cccc2c1 | inconclusive: 44.7 µM [inhibitor, partial curve, poor fit] | –
O=C(c1cc(Cl)ccc1F)N1CCC(Cc2nc(-c3ccc(F)cc3)no2)CC1 | inactive | –
O=C(CC1C=CCC1)Nc1ccccc1Sc1ccccc1 (configuration not stated) | inconclusive: 100 µM [inhibitor, single point] | –
O=C(NCCc1cccc(F)c1)C1CCCC1 | inconclusive: 158 µM [inhibitor, single point] | –
Cc1ccc(OCC(=O)O/N=C(\N)Cc2ccc(Cl)cc2)cc1 | inactive | –
COc1ccc(CN2CCC3(CC2)CNc2ccccc2[S+](=O)([O-])N3)cc1 | inconclusive: 28.2 µM [inhibitor, partial curve] | –
CCOC(=O)CN1NC2(CCCCC2)NC1=S | inconclusive: 50.1 µM [inhibitor, partial curve, poor fit] | –
O=C1CCC(CCC(=O)N2CCN(c3ccccc3F)CC2)(Cc2ccc3ccccc3c2)N1 (configuration not stated) | inactive | –
COc1ccc(CC(=O)NNC(=S)NC(=O)c2cccnc2)cc1 | inconclusive: 7.94 µM [inhibitor, partial curve, poor fit] | –

Pulled by structure from the list above:
Structure (SMILES) | Potency | activity change, negative = inhibition
COc1ccc(CC(=O)NNC(=S)NC(=O)c2cccnc2)cc1 | inconclusive: 7.94 µM [inhibitor, partial curve, poor fit] | –
COc1cc(CN2CCC(C(=O)NC(c3ccc(-c4ccccc4)cc3)c3cnccn3)CC2)cc(OC)c1 (configuration not stated) | inconclusive: 39.8 µM [inhibitor, partial curve, poor fit] | –
O=C1OCC2=C1C(c1ccc3c(c1)OCO3)Sc1ccccc1N2 (configuration not stated) | inconclusive: 50.1 µM [inhibitor, partial curve, poor fit] | –
Cc1cc(NC(=O)CN2C(=O)/C(=C/c3ccccc3F)SC2=S)no1 | inactive | –
